# In the supplement of paper PMC8728848:
# This is one part of the list.
# B1: Gal 12 (Homo sapiens), Q96DT0 (protein)
# chain: MSQPSGGRAPGTRIYSWSCPTVMSPGEKLDPIPDSFILQPPVFHPVVPYVTTIFGGLHAGKMVMLQGVVPLDAHRFQVDFQCGCSLCPRPDIAFHFNPRFHTTKPHVICNTLHGGRWQREARWPHLALRRGSSFLILFLFGNEEVKVSVNGQHFLHFRYRLPLSHVDTLGIFGDILVEAVGFLNINPFVEGSREYPAGHPFLLMSPRLEVPCSHALPQGLSPGQVIIVRGLVLQEPKHFTVSLRDQAAHAPVTLRASFADRTLAWISRWGQKKLISAPFLFYPQRFFEVLLLFQEGGLKLALNGQGLGATSMNQQALEQLRELRISGSVQLYCVHS
# Key:
# Experiment in all cases: glycan array binding signal (z-score within array); higher = stronger binding
# Conditions in all cases: glycan notation: IUPAC condensed, linker removed
# [1] = biological target: GlcNAc(b1-2)Man(a1-3)[GlcNAc(b1-2)Man(a1-6)]Man(b1-4)GlcNAc(b1-4)GlcNAc
# How it was run: (§1)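 Negative Z-scores can be read as non-binding. The Z-score is calculated within each array and then averaged across arrays of one protein sequence at different concentrations or buffers and across linkers. Arrays, 3228 in all, were curated from the Consortium for Functional Glycomics database and kept only where the protein sequence was available.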
# [2] = biological target: GlcNAc(b1-2)Man(a1-3)[GlcNAc(b1-2)Man(a1-6)]Man(b1-4)GlcNAc(b1-4)[Fuc(a1-6)]GlcNAc
# How it was run: as §1
# [3] = biological target: GlcNAc(b1-2)Man(a1-3)[GlcNAc(b1-4)][GlcNAc(b1-2)Man(a1-6)]Man(b1-4)GlcNAc(b1-4)GlcNAc
# How it was run: as §1
# [4] = biological target: GlcNAc(b1-2)Man(a1-3)[GlcNAc(b1-4)][GlcNAc(b1-2)Man(a1-6)]Man(b1-4)GlcNAc(b1-4)[Fuc(a1-6)]GlcNAc
# How it was run: as §1
# [5] = biological target: GlcNAc(b1-2)[GlcNAc(b1-4)]Man(a1-3)[GlcNAc(b1-2)Man(a1-6)]Man(b1-4)GlcNAc(b1-4)GlcNAc
# How it was run: as §1
# [6] = biological target: GlcNAc(b1-2)[GlcNAc(b1-4)]Man(a1-3)[GlcNAc(b1-4)][GlcNAc(b1-2)Man(a1-6)]Man(b1-4)GlcNAc(b1-4)GlcNAc
# How it was run: as §1
# [7] = biological target: GlcNAc(b1-2)[GlcNAc(b1-4)]Man(a1-3)[GlcNAc(b1-4)][GlcNAc(b1-2)[GlcNAc(b1-6)]Man(a1-6)]Man(b1-4)GlcNAc(b1-4)GlcNAc
# How it was run: as §1
# [8] = biological target: GlcNAc(b1-2)[GlcNAc(b1-4)]Man(a1-3)[GlcNAc(b1-4)][GlcNAc(b1-2)[GlcNAc(b1-6)]Man(a1-6)]Man(b1-4)GlcNAc(b1-4)[Fuc(a1-6)]GlcNAc
# How it was run: as §1
# [9] = biological target: GlcNAc(b1-2)[GlcNAc(b1-6)]Man(a1-6)[GlcNAc(b1-2)Man(a1-3)]Man(b1-4)GlcNAc(b1-4)GlcNAc
# How it was run: as §1
# [10] = biological target: GlcNAc(b1-2)[GlcNAc(b1-6)]Man(a1-6)[GlcNAc(b1-2)Man(a1-3)]Man(b1-4)GlcNAc(b1-4)[Fuc(a1-6)]GlcNAc
# How it was run: as §1
# [11] = biological target: GlcNAc(b1-2)[GlcNAc(b1-6)]Man(a1-6)[GlcNAc(b1-2)Man(a1-3)][GlcNAc(b1-4)]Man(b1-4)GlcNAc(b1-4)GlcNAc
# How it was run: as §1
# [12] = biological target: GlcNAc(b1-2)[GlcNAc(b1-6)]Man(a1-6)[GlcNAc(b1-4)][GlcNAc(b1-2)Man(a1-3)]Man(b1-4)GlcNAc(b1-4)GlcNAc
# How it was run: as §1
# GlcNAc(b1-3)Fuc = biological target: GlcNAc(b1-3)Fuc
# How it was run: as §1
# GlcNAc(b1-3)Gal = biological target: GlcNAc(b1-3)Gal
# How it was run: as §1
# [13] = biological target: GlcNAc(b1-3)Gal(b1-3)GalNAc
# How it was run: as §1
# GlcNAc(b1-3)Gal(b1-4)Glc = biological target: GlcNAc(b1-3)Gal(b1-4)Glc
# How it was run: as §1
# [14] = biological target: GlcNAc(b1-3)Gal(b1-4)GlcNAc
# How it was run: as §1
# [15] = biological target: GlcNAc(b1-3)Gal(b1-4)GlcNAc(b1-2)Man(a1-3)[GlcNAc(b1-3)Gal(b1-4)GlcNAc(b1-2)Man(a1-6)]Man(b1-4)GlcNAc(b1-4)GlcNAc
# How it was run: as §1
# [16] = biological target: GlcNAc(b1-3)Gal(b1-4)GlcNAc(b1-2)Man(a1-3)[GlcNAc(b1-3)Gal(b1-4)GlcNAc(b1-2)Man(a1-6)]Man(b1-4)GlcNAc(b1-4)[Fuc(a1-6)]GlcNAc
# How it was run: as §1
# [17] = biological target: GlcNAc(b1-3)Gal(b1-4)GlcNAc(b1-2)[GlcNAc(b1-3)Gal(b1-4)GlcNAc(b1-6)]Man(a1-6)[GlcNAc(b1-3)Gal(b1-4)GlcNAc(b1-2)Man(a1-3)]Man(b1-4)GlcNAc(b1-4)GlcNAc
# How it was run: as §1
# [18] = biological target: GlcNAc(b1-3)Gal(b1-4)GlcNAc(b1-3)Gal(b1-4)GlcNAc
# How it was run: as §1
# [19] = biological target: GlcNAc(b1-3)Gal(b1-4)GlcNAc(b1-3)Gal(b1-4)GlcNAc(b1-2)Man(a1-3)[GlcNAc(b1-3)Gal(b1-4)GlcNAc(b1-3)Gal(b1-4)GlcNAc(b1-2)Man(a1-6)]Man(b1-4)GlcNAc(b1-4)GlcNAc
# How it was run: as §1
# [20] = biological target: GlcNAc(b1-3)Gal(b1-4)GlcNAc(b1-3)Gal(b1-4)GlcNAc(b1-2)Man(a1-3)[GlcNAc(b1-3)Gal(b1-4)GlcNAc(b1-3)Gal(b1-4)GlcNAc(b1-2)Man(a1-6)]Man(b1-4)GlcNAc(b1-4)[Fuc(a1-6)]GlcNAc
# How it was run: as §1
# [21] = biological target: GlcNAc(b1-3)Gal(b1-4)GlcNAc(b1-3)Gal(b1-4)GlcNAc(b1-2)[GlcNAc(b1-3)Gal(b1-4)GlcNAc(b1-3)Gal(b1-4)GlcNAc(b1-6)]Man(a1-6)[GlcNAc(b1-3)Gal(b1-4)GlcNAc(b1-3)Gal(b1-4)GlcNAc(b1-2)Man(a1-3)]Man(b1-4)GlcNAc(b1-4)[Fuc(a1-6)]GlcNAc
# How it was run: as §1
# [22] = biological target: GlcNAc(b1-3)Gal(b1-4)GlcNAc(b1-3)Gal(b1-4)GlcNAc(b1-3)Gal(b1-4)GlcNAc(b1-2)Man(a1-3)[GlcNAc(b1-3)Gal(b1-4)GlcNAc(b1-3)Gal(b1-4)GlcNAc(b1-3)Gal(b1-4)GlcNAc(b1-2)Man(a1-6)]Man(b1-4)GlcNAc(b1-4)GlcNAc
# How it was run: as §1
# [23] = biological target: GlcNAc(b1-3)Gal(b1-4)GlcNAc(b1-3)Gal(b1-4)GlcNAc(b1-3)Gal(b1-4)GlcNAc(b1-2)Man(a1-3)[GlcNAc(b1-3)Gal(b1-4)GlcNAc(b1-3)Gal(b1-4)GlcNAc(b1-3)Gal(b1-4)GlcNAc(b1-2)Man(a1-6)]Man(b1-4)GlcNAc(b1-4)[Fuc(a1-6)]GlcNAc
# How it was run: as §1
# [24] = biological target: GlcNAc(b1-3)Gal(b1-4)GlcNAc(b1-3)Gal(b1-4)GlcNAc(b1-3)Gal(b1-4)GlcNAc(b1-2)[GlcNAc(b1-3)Gal(b1-4)GlcNAc(b1-3)Gal(b1-4)GlcNAc(b1-3)Gal(b1-4)GlcNAc(b1-6)]Man(a1-6)[GlcNAc(b1-3)Gal(b1-4)GlcNAc(b1-3)Gal(b1-4)GlcNAc(b1-3)Gal(b1-4)GlcNAc(b1-2)Man(a1-3)]Man(b1-4)GlcNAc(b1-4)[Fuc(a1-6)]GlcNAc
# How it was run: as §1
# [25] = biological target: GlcNAc(b1-3)Gal(b1-4)GlcNAc(b1-3)Gal(b1-4)GlcNAc(b1-3)Gal(b1-4)GlcNAc(b1-3)Gal(b1-4)GlcNAc(b1-2)Man(a1-3)[GlcNAc(b1-3)Gal(b1-4)GlcNAc(b1-3)Gal(b1-4)GlcNAc(b1-3)Gal(b1-4)GlcNAc(b1-3)Gal(b1-4)GlcNAc(b1-2)Man(a1-6)]Man(b1-4)GlcNAc(b1-4)GlcNAc
# How it was run: as §1
# [26] = biological target: GlcNAc(b1-3)Gal(b1-4)GlcNAc(b1-3)Gal(b1-4)GlcNAc(b1-3)Gal(b1-4)GlcNAc(b1-3)Gal(b1-4)GlcNAc(b1-2)Man(a1-3)[GlcNAc(b1-3)Gal(b1-4)GlcNAc(b1-3)Gal(b1-4)GlcNAc(b1-3)Gal(b1-4)GlcNAc(b1-3)Gal(b1-4)GlcNAc(b1-2)Man(a1-6)]Man(b1-4)GlcNAc(b1-4)[Fuc(a1-6)]GlcNAc
# How it was run: as §1
# [27] = biological target: GlcNAc(b1-3)Gal(b1-4)GlcNAc(b1-3)Gal(b1-4)GlcNAc(b1-3)Gal(b1-4)GlcNAc(b1-3)Gal(b1-4)GlcNAc(b1-2)[GlcNAc(b1-3)Gal(b1-4)GlcNAc(b1-3)Gal(b1-4)GlcNAc(b1-3)Gal(b1-4)GlcNAc(b1-3)Gal(b1-4)GlcNAc(b1-6)]Man(a1-6)[GlcNAc(b1-3)Gal(b1-4)GlcNAc(b1-3)Gal(b1-4)GlcNAc(b1-3)Gal(b1-4)GlcNAc(b1-3)Gal(b1-4)GlcNAc(b1-2)Man(a1-3)]Man(b1-4)GlcNAc(b1-4)[Fuc(a1-6)]GlcNAc
# How it was run: as §1
# [28] = biological target: GlcNAc(b1-3)Gal(b1-4)GlcNAc(b1-3)Gal(b1-4)GlcNAc(b1-3)GalNAc
# How it was run: as §1
# [29] = biological target: GlcNAc(b1-3)Gal(b1-4)GlcNAc(b1-3)GalNAc
# How it was run: as §1
# [30] = biological target: GlcNAc(b1-3)Gal(b1-4)GlcNAc(b1-3)[GlcNAc(b1-3)Gal(b1-4)GlcNAc(b1-3)]GalNAc
# How it was run: as §1
# [31] = biological target: GlcNAc(b1-3)Gal(b1-4)GlcNAc(b1-6)[Gal(b1-3)]GalNAc
# How it was run: as §1
# [32] = biological target: GlcNAc(b1-3)Gal(b1-4)GlcNAc(b1-6)[GlcNAc(b1-3)Gal(b1-3)]GalNAc
# How it was run: as §1
# [33] = biological target: GlcNAc(b1-3)Gal(b1-4)GlcNAc(b1-6)[GlcNAc(b1-3)]Gal(b1-4)GlcNAc
# How it was run: as §1
# GlcNAc(b1-3)GalNAc = biological target: GlcNAc(b1-3)GalNAc
# How it was run: as §1
binder,measurement,setting,value
B1,glycan array binding signal (z-score),[1],-0.422
same,glycan array binding signal (z-score),[2],1.07
same,glycan array binding signal (z-score),[3],0.085
same,glycan array binding signal (z-score),[4],-0.742
same,glycan array binding signal (z-score),[5],-0.412
same,glycan array binding signal (z-score),[6],-0.471
same,glycan array binding signal (z-score),[7],-0.847
same,glycan array binding signal (z-score),[8],-0.724
same,glycan array binding signal (z-score),[9],1.31
same,glycan array binding signal (z-score),[10],1.21
same,glycan array binding signal (z-score),[11],-0.54
same,glycan array binding signal (z-score),[12],-0.375
same,glycan array binding signal (z-score),GlcNAc(b1-3)Fuc,1.75
same,glycan array binding signal (z-score),GlcNAc(b1-3)Gal,0.174
same,glycan array binding signal (z-score),[13],-0.161
same,glycan array binding signal (z-score),GlcNAc(b1-3)Gal(b1-4)Glc,0.336
same,glycan array binding signal (z-score),[14],-0.475
same,glycan array binding signal (z-score),[15],-0.208
same,glycan array binding signal (z-score),[16],0.261
same,glycan array binding signal (z-score),[17],1.32
same,glycan array binding signal (z-score),[18],-0.608
same,glycan array binding signal (z-score),[19],1.62
same,glycan array binding signal (z-score),[20],0.919
same,glycan array binding signal (z-score),[21],0.115
same,glycan array binding signal (z-score),[22],0.01
same,glycan array binding signal (z-score),[23],0.526
same,glycan array binding signal (z-score),[24],-0.532
same,glycan array binding signal (z-score),[25],-0.232
same,glycan array binding signal (z-score),[26],-0.857
same,glycan array binding signal (z-score),[27],0.411
same,glycan array binding signal (z-score),[28],-1.01
same,glycan array binding signal (z-score),[29],1.33
same,glycan array binding signal (z-score),[30],0.083
same,glycan array binding signal (z-score),[31],-1.26
same,glycan array binding signal (z-score),[32],0.418
same,glycan array binding signal (z-score),[33],-0.202
same,glycan array binding signal (z-score),GlcNAc(b1-3)GalNAc,-0.05

# 2 entries drawn at random from the list so far, as already listed:
binder,measurement,setting,value
B1,glycan array binding signal (z-score),[4],-0.742
same,glycan array binding signal (z-score),[29],1.33
